Compound in the assay: CCc1cnccc1C(=O)Nc1cc2c(cc1F)NC(=O)CC2
Kind of assay: melting temperature shift (DMSO Tm minus MBE1-treated Tm) in cellular thermal proteome profiling; higher = less thermal stabilization by MBE1 (negative = stabilized by MBE1). Particulars: A375.

The chains behind the UniProt entries cited, without tags or fusion partners. Where a name states a change or a piece, a line headed by the entry shows the natural chain unless it says otherwise.
UniProt Q2VIQ3: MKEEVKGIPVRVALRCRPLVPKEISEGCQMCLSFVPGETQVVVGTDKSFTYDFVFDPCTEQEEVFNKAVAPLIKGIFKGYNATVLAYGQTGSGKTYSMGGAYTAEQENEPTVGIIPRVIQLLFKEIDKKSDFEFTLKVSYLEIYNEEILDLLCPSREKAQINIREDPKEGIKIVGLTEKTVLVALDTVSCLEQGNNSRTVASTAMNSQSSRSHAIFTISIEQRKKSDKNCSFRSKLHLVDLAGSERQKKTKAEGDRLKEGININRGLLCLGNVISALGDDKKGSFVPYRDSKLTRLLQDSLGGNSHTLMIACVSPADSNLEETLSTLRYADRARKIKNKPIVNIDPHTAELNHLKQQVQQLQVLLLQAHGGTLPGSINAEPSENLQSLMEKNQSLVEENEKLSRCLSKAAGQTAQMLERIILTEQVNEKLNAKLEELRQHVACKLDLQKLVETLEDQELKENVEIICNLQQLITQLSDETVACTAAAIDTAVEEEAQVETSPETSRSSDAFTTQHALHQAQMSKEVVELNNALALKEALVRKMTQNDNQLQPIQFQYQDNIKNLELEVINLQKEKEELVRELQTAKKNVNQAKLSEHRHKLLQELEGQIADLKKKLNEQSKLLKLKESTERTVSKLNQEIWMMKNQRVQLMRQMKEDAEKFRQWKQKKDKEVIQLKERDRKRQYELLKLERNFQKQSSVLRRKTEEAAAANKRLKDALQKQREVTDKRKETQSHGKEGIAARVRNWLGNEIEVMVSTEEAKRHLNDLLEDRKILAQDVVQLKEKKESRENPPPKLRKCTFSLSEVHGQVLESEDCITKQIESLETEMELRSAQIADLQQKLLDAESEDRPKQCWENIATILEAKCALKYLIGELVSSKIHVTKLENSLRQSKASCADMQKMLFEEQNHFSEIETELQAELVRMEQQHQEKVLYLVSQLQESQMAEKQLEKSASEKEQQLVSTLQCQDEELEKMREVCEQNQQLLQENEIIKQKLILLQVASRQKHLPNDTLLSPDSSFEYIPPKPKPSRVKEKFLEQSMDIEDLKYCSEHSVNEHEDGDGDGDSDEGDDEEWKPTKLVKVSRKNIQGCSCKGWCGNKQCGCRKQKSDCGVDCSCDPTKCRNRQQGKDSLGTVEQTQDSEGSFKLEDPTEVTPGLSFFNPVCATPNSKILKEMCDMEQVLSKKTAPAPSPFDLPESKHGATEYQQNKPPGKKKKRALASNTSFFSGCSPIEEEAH
UniProt Q15477, whole entry: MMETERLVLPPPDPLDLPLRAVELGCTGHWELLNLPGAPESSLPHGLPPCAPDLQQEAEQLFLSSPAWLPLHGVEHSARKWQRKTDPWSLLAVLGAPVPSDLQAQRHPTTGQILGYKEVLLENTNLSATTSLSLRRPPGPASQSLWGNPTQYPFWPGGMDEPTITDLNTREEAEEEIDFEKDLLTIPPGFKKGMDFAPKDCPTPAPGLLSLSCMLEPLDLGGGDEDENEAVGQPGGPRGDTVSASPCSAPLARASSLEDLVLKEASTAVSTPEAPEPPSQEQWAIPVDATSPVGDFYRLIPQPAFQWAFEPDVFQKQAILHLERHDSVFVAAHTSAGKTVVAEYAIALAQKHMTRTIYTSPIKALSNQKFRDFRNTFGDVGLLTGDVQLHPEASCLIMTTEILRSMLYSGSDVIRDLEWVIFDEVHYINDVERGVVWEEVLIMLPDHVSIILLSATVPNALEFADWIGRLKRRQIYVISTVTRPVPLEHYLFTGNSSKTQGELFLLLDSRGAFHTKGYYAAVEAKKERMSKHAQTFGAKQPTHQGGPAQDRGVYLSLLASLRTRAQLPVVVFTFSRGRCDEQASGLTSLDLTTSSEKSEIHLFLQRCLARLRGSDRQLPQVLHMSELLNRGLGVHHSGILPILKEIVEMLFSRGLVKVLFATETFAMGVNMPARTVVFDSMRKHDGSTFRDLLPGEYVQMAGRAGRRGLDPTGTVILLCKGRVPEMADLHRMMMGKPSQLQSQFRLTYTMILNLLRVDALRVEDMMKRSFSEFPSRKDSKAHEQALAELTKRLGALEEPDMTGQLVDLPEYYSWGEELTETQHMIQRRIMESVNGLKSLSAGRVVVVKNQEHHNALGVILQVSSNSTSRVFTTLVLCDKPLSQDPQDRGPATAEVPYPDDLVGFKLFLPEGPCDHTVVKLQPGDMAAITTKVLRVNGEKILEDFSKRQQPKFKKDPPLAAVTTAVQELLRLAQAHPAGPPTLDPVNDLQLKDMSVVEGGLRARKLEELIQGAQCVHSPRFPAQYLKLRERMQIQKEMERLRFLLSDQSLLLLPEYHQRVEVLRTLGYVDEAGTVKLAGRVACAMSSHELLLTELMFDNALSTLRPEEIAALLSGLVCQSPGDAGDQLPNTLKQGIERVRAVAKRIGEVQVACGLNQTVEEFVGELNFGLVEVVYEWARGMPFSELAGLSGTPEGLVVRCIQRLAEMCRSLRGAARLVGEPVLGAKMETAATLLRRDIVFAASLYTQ
UniProt Q4V328: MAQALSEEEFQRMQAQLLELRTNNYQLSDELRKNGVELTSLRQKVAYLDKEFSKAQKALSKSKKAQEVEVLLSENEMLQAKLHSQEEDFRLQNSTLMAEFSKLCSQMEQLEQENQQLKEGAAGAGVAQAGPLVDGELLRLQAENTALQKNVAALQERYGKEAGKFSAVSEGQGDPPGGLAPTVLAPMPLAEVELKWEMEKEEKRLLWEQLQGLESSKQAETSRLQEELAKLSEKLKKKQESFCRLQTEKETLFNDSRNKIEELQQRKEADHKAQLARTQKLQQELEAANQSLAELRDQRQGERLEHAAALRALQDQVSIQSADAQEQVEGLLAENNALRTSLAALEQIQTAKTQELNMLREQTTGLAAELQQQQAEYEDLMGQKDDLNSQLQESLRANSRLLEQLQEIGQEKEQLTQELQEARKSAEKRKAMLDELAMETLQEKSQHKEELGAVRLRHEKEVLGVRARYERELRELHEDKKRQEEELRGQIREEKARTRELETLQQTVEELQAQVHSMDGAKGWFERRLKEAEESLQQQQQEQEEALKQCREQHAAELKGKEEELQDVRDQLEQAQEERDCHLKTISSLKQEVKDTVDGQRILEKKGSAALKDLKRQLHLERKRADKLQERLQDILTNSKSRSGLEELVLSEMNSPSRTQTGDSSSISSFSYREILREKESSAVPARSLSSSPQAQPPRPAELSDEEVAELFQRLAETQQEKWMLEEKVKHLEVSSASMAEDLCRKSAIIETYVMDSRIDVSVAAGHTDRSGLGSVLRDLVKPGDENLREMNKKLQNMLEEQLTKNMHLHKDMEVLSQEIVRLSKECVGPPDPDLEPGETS
UniProt Q2M3G4: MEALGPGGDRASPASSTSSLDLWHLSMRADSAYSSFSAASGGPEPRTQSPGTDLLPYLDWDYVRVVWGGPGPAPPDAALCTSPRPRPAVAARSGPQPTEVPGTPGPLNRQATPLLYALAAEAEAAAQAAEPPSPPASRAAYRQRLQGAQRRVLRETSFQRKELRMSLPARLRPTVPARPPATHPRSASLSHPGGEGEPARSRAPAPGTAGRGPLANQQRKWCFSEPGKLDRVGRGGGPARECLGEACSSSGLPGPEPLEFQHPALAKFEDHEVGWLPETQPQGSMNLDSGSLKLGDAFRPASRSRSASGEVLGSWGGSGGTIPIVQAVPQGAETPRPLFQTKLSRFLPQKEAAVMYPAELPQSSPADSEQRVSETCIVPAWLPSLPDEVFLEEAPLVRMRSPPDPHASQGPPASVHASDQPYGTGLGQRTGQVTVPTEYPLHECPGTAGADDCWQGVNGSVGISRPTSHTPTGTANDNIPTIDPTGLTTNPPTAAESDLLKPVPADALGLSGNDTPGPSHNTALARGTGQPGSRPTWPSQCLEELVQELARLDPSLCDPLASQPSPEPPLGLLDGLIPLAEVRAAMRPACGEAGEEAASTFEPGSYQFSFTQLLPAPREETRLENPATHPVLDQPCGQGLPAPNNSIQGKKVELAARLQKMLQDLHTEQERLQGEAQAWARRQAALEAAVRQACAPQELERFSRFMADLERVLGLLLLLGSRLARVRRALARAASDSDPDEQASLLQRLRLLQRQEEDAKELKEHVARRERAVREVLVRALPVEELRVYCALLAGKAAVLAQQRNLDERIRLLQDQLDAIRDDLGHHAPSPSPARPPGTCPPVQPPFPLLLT
UniProt Q58A45: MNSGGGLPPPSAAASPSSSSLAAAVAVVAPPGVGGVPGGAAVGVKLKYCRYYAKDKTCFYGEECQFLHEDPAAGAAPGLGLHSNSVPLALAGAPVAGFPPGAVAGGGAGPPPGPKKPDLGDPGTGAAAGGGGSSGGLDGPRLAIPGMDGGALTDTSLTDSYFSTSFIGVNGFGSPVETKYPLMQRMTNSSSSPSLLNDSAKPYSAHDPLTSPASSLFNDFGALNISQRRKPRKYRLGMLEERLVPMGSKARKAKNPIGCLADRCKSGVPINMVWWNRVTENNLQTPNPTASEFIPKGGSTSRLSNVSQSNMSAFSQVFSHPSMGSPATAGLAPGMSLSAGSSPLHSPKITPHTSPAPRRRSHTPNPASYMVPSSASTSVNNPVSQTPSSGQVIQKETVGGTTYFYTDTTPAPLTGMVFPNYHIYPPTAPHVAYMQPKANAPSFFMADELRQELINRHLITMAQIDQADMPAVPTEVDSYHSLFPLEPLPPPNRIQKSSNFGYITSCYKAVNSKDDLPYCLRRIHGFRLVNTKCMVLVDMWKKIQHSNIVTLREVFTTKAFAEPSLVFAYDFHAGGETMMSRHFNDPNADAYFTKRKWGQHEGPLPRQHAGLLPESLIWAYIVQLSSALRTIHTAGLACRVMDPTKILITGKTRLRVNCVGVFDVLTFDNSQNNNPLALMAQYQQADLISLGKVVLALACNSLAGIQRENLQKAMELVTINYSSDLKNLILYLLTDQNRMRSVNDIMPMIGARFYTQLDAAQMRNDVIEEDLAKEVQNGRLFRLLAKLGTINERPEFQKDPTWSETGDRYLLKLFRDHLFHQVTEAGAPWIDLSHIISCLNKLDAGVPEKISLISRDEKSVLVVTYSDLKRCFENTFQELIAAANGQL
UniProt Q15650: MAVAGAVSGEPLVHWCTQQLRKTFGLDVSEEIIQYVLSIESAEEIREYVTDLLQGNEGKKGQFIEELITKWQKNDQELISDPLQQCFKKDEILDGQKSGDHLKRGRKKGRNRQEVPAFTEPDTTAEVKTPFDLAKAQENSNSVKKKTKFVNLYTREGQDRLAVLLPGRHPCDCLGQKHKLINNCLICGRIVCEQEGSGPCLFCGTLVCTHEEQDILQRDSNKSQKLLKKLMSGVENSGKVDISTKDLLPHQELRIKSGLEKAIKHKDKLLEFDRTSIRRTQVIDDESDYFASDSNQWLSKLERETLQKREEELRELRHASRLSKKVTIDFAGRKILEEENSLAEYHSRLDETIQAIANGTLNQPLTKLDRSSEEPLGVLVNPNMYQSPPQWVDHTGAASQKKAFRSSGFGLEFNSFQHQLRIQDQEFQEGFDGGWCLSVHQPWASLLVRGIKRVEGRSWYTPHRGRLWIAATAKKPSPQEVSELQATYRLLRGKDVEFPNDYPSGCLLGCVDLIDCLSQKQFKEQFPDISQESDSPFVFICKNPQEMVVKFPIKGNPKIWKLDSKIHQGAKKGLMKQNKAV
UniProt Q15526: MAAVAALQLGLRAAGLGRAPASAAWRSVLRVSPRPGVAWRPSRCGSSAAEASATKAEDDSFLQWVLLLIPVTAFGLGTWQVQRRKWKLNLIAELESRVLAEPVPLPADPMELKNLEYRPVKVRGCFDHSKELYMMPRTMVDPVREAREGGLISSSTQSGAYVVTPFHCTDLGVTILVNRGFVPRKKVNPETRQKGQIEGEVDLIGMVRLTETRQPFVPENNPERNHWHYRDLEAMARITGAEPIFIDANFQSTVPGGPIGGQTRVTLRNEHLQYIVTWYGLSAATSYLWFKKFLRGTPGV
UniProt Q15642: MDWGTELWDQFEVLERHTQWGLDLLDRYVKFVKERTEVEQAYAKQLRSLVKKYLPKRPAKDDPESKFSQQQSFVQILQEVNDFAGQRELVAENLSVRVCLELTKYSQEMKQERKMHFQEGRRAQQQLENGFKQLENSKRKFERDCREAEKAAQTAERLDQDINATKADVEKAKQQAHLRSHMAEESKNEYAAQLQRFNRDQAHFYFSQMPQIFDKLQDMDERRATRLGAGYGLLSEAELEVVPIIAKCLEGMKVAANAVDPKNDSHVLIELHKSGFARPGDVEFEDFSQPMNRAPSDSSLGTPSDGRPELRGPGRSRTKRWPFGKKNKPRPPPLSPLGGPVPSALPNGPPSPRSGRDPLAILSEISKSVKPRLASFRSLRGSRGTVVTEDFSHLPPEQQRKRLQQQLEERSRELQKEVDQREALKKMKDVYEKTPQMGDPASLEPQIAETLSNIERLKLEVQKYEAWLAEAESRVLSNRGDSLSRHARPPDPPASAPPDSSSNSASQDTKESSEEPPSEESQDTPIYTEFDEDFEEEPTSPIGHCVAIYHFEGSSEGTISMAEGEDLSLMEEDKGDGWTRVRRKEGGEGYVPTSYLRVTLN

Some of the results follow. The data scatter; read single values as rough.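 Many melting curves are irregular; where none melted, Tm was taken as 64 °C.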

UniProt Q2VIQ3: the melting temperature shift by setting is: (MBE1 concentration: 100 nM) 0.359 °C; (MBE1 concentration: 1 uM) -1.01 °C.

For the target SKIV2L (UniProt Q15477), the melting temperature shift reads like this: (MBE1 concentration: 100 nM) -0.888 °C; (MBE1 concentration: 1 uM) -0.183 °C.

With GRIPAP1 (UniProt Q4V328), the melting temperature shift (MBE1 concentration: 100 nM) was 0.556 °C and the melting temperature shift (MBE1 concentration: 1 uM) is -0.458 °C.

For PSMD5 (UniProt Q16401), the melting temperature shift is -0.183 °C (MBE1 concentration: 100 nM) and -0.147 °C (MBE1 concentration: 1 uM).

Consider SHROOM1 (UniProt Q2M3G4), for which the melting temperature shift was 1.22 °C (MBE1 concentration: 100 nM) and -0.275 °C (MBE1 concentration: 1 uM).

Regarding TBCE (UniProt Q15813), the melting temperature shift is -0.46 °C (MBE1 concentration: 100 nM) and -0.245 °C (MBE1 concentration: 1 uM).

Regarding PAN3 (UniProt Q58A45), the melting temperature shift is, setting by setting: (MBE1 concentration: 100 nM) -0.216 °C; (MBE1 concentration: 1 uM) -0.282 °C.

With PPP2R4 (UniProt Q15257), the melting temperature shift is -0.825 °C (MBE1 concentration: 100 nM) and 0.664 °C (MBE1 concentration: 1 uM).

For the target TRIP4 (UniProt Q15650), the melting temperature shift runs as follows: (MBE1 concentration: 100 nM) 0.451 °C; (MBE1 concentration: 1 uM) 0.795 °C.

Regarding TST (UniProt Q16762), the melting temperature shift was -0.0641 °C (MBE1 concentration: 100 nM) and 0.00641 °C (MBE1 concentration: 1 uM).

UniProt Q15468: the melting temperature shift is -1.69 °C (MBE1 concentration: 100 nM) and 0.0733 °C (MBE1 concentration: 1 uM).

As to NFKBIB (UniProt Q15653), the melting temperature shift was 1.25 °C (MBE1 concentration: 100 nM) and 0.757 °C (MBE1 concentration: 1 uM).

For the target UniProt Q53GG5, the melting temperature shift is -3.3 °C (MBE1 concentration: 100 nM) and -1.64 °C (MBE1 concentration: 1 uM).

UniProt Q15120: the melting temperature shift stood at 0.902 °C (MBE1 concentration: 100 nM) and 0.34 °C (MBE1 concentration: 1 uM).

As to PCBP1 (UniProt Q15365), the melting temperature shift (MBE1 concentration: 100 nM) is 0.0672 °C and the melting temperature shift (MBE1 concentration: 1 uM) is -0.898 °C.

On to TCEAL1 (UniProt Q15170), for which the melting temperature shift reads like this: (MBE1 concentration: 100 nM) -1.62 °C; (MBE1 concentration: 1 uM) -4.19 °C.

As for SURF1 (UniProt Q15526), the melting temperature shift by setting is: (MBE1 concentration: 100 nM) -0.402 °C; (MBE1 concentration: 1 uM) 0.501 °C.

In the case of TRAM1 (UniProt Q15629), the melting temperature shift (MBE1 concentration: 100 nM) was 0.696 °C and the melting temperature shift (MBE1 concentration: 1 uM) was determined as 0.501 °C.

With UniProt Q2YD98, the melting temperature shift was -1.41 °C (MBE1 concentration: 100 nM) and -0.724 °C (MBE1 concentration: 1 uM).

Turning to KIF14 (UniProt Q15058), the melting temperature shift (MBE1 concentration: 100 nM) was -0.685 °C and the melting temperature shift (MBE1 concentration: 1 uM) was -0.0769 °C.

As for UniProt Q2M1P5, the melting temperature shift is -0.702 °C (MBE1 concentration: 100 nM) and 1.71 °C (MBE1 concentration: 1 uM).

Consider TRIP10 (UniProt Q15642), for which the melting temperature shift (MBE1 concentration: 100 nM) stood at 0.263 °C and the melting temperature shift (MBE1 concentration: 1 uM) is -0.202 °C.

As to HNRNPUL2 (UniProt Q1KMD3), the melting temperature shift is, setting by setting: (MBE1 concentration: 100 nM) 0.275 °C; (MBE1 concentration: 1 uM) -0.195 °C.

Take UAP1 (UniProt Q16222): the melting temperature shift is, setting by setting: (MBE1 concentration: 100 nM) -0.972 °C; (MBE1 concentration: 1 uM) 0.671 °C.

As for UniProt Q53T94, the melting temperature shift (MBE1 concentration: 100 nM) was -0.904 °C and the melting temperature shift (MBE1 concentration: 1 uM) was -2.34 °C.

Turning to HERC1 (UniProt Q15751), the melting temperature shift runs as follows: (MBE1 concentration: 100 nM) -0.0855 °C; (MBE1 concentration: 1 uM) 0.318 °C.

In the case of QRICH1 (UniProt Q2TAL8), the melting temperature shift is, setting by setting: (MBE1 concentration: 100 nM) -0.282 °C; (MBE1 concentration: 1 uM) -0.224 °C.

With GNPTAB (UniProt Q3T906), the melting temperature shift is -2.96 °C (MBE1 concentration: 100 nM) and 0.0366 °C (MBE1 concentration: 1 uM).

As for CLPP (UniProt Q16740), the melting temperature shift runs as follows: (MBE1 concentration: 100 nM) -0.623 °C; (MBE1 concentration: 1 uM) -0.0733 °C.

Take PPP1R7 (UniProt Q15435): the melting temperature shift (MBE1 concentration: 100 nM) was -0.731 °C and the melting temperature shift (MBE1 concentration: 1 uM) came out at 0.604 °C.

On to QSER1 (UniProt Q2KHR3), for which the melting temperature shift was found to be 0.416 °C (MBE1 concentration: 100 nM) and 0.00641 °C (MBE1 concentration: 1 uM).

Take UniProt Q16594: the melting temperature shift was -0.653 °C (MBE1 concentration: 100 nM) and -0.653 °C (MBE1 concentration: 1 uM).

NDUFAF6 (UniProt Q330K2): the melting temperature shift is, setting by setting: (MBE1 concentration: 100 nM) 0.714 °C; (MBE1 concentration: 1 uM) 0.891 °C.

With UniProt Q562R1, the melting temperature shift (MBE1 concentration: 100 nM) is -2.21 °C and the melting temperature shift (MBE1 concentration: 1 uM) is -0.313 °C.
